Results published in patent US20100098788A1, “Extracts of Curcuma and Methods of Use Thereof” (priority 2008, published 2010).
“Also recorded” adds a separate entry of the source. At least one structure is not confirmed: it was looked up by name or label, or the drawing left a doubt. Some results were stated once for a whole list of compounds, not compound by compound.

Chains of the proteins cited; added tags and fusions are not shown. Residues count along the entry.
UniProt P05067, 672-713: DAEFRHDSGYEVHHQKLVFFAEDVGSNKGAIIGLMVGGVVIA

How the values were obtained:
Aβ1-42 peptide = biological target: T1, Aβ1-42 peptide (Homo sapiens, UniProt P05067); assay: Amyloid aggregation assay (thioflavin T fluorescence); type: biochemical; settings: 0 to 30 μg mL^−1, 120 h, 37° C.
T1 construct: carried out with the synthetic Aβ1-42 peptide incubated with the extracts

[1] = test system: Aβ1-40, 42 peptides secreted from SweAPP N2a cells; assay: Aβ secretion ELISA in conditioned media of SweAPP N2a cells; type: cell-based; settings: 3-30 μg/ml, 12 h (FIG. 5 legend: 8 h)
Aβ1-42 aggregation = biological target: T2, Aβ1-42 aggregation (Homo sapiens, UniProt P05067); assay: Interaction matrices of Extract 1 with extracts and curcuminoids in the Aβ1-42 aggregation assay; type: biochemical; settings: for Effect: interaction with Extract 1 (synergistic, antagonistic or additive); for fold decrease in IC50 for Aβ aggregation: when Extract 1 was added
T2 construct: carried out with the synthetic Aβ1-42 peptide incubated with the extracts

[2] = test system: Aβ deposits in brain of Tg2576 mice; assay: Aβ plaque burden by 4G8 immunohistochemistry and image analysis after oral treatment; type: in vivo; settings: oral 0.07% in chow, 6 months

SMILES | inhibition of Aβ1-42 aggregation (Aβ1-42 peptide) | Aβ generation / secretion (Aβ1-40, 42 peptides) relative to control [1] | Aβ generation / secretion (Aβ1-40, 42 peptides) relative to control ([1]; listed as tetrahydrocurcumin) | Effect (Aβ1-42 aggregation) | fold decrease in IC50 for Aβ aggregation (Aβ1-42 aggregation) | Aβ plaque burden (4G8) in entorhinal cortex and hippocampus [2]
COc1cc(CCC(=O)CC(=O)CCc2ccc(O)c(OC)c2)ccc1O [THC, tetrahydrocurcumin] | effective | stimulated Aβ secretion | enhanced APP secretion; also recorded: increased Aβ generation | Additive | 2-8 fold | to a much lesser degree
COc1cc(/C=C/C(O)=C/C(=O)/C=C/c2ccc(O)cc2)ccc1O [DMC, demethoxycurcumin] | effective | inhibited APP secretion | – | Additive | > 110 fold | –
